{"source": "paper PMC9115922", "target": "p35 (bait of the mass spectrometry-based interactome screen)", "experiment": "affinity purification with mass spectrometry; p35 interactome screen, tandem mass spectrometry; the set-up is in refs 23, 24", "note": "No constants are given. Whether binding was seen depends on the method and setting. Binding seen in cells or lysates may run through a third protein. These calls come from enrichment with a bait or labelling near it, and not all partners need be listed."}
{"binder": "JIP1 (mouse, hit of the p35 interactome screen) (protein, UniProt Q9WVI9 1-707) MAERESGLGGGAASPPAASPFLGLHIASPPNFRLTHDISLEEFEDEDLSEITDECGISLQCKDTLSLRPPRAGLLSAGSSGSAGSRLQAEMLQMDLIDAAGDTPGAEDDEEEEDDELAAQRPGVGPPKAESNQDPAPRSQGQGPGTGSGDTYRPKRPTTLNLFPQVPRSQDTLNNNSLGKKHSWQDRVSRSSSPLKTGEQTPPHEHICLSDELPPQGSPVPTQDRGTSTDSPCRRSAATQMAPPSGPPATAPGGRGHSHRDRIHYQADVRLEATEEIYLTPVQRPPDPAEPTSTFMPPTESRMSVSSDPDPAAYSVTAGRPHPSISEEDEGFDCLSSPERAEPPGGGWRGSLGEPPPPPRASLSSDTSALSYDSVKYTLVVDEHAQLELVSLRPCFGDYSDESDSATVYDNCASASSPYESAIGEEYEEAPQPRPPTCLSEDSTPDEPDVHFSKKFLNVFMSGRSRSSSAESFGLFSCVINGEEHEQTHRAIFRFVPRHEDELELEVDDPLLVELQAEDYWYEAYNMRTGARGVFPAYYAIEVTKEPEHMAALAKNSDWIDQFRVKFLGSVQVPYHKGNDVLCAAMQKIATTRRLTVHFNPPSSCVLEISVRGVKIGVKADDALEAKGNKCSHFFQLKNISFCGYHPKNNKYFGFITKHPADHRFACHVFVSEDSTKALAESVGRAFQQFYKQFVEYTCPTEDIYLE", "values": [{"measurement": "binding", "value": "binds"}]}
